Data reported in paper PMC6857912.

Sequences of proteins named here, by UniProt entry; tags and fusion partners are left off. A change or cut given only in a name is not applied to a line headed by its entry. Residues count along the entry.
UniProt E9Q8Q6: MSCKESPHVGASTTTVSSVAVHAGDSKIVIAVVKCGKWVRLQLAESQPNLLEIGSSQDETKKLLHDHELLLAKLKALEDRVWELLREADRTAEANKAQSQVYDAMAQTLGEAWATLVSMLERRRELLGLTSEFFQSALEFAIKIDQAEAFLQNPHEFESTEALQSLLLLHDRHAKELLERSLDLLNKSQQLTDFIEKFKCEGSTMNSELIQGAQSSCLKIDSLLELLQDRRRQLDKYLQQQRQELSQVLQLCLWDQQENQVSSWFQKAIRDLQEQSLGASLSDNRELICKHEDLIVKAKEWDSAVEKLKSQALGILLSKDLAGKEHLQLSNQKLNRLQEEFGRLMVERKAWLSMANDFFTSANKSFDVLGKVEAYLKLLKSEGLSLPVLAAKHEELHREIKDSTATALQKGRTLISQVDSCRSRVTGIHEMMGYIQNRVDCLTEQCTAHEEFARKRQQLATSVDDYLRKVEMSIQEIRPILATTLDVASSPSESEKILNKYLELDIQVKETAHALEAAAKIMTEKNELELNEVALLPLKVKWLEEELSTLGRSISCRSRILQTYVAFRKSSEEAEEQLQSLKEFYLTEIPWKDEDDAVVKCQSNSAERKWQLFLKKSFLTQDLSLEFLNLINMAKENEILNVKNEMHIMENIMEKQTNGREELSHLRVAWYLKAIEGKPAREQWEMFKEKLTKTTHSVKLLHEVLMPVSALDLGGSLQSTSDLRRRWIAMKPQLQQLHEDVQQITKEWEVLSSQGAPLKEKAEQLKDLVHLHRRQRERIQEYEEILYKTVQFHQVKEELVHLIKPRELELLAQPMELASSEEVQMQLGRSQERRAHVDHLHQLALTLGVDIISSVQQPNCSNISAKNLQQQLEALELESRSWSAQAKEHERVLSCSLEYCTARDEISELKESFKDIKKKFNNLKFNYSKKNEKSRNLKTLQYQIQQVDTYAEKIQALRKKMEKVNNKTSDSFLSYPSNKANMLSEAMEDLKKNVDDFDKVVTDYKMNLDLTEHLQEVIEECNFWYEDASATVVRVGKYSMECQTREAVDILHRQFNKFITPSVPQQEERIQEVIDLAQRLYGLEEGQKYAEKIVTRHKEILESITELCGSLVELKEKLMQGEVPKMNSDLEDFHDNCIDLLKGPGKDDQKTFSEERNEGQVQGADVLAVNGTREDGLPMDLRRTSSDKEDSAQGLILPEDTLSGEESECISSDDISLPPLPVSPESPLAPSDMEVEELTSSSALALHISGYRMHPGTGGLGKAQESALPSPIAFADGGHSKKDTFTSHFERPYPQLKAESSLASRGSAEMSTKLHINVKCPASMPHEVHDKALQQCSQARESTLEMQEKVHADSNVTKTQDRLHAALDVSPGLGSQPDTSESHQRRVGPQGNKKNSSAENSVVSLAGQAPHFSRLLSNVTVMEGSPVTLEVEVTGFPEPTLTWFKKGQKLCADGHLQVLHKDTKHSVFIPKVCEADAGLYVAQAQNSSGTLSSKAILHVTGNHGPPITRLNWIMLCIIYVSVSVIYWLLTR
UniProt Q5SXA9, residues 863-1104: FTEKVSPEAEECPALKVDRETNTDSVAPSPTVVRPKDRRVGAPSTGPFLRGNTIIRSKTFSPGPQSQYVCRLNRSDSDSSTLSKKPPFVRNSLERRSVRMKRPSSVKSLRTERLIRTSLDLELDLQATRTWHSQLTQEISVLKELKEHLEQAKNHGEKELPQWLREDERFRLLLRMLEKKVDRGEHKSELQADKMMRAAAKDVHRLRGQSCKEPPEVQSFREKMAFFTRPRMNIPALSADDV

Biological target: CAMDI coiled-coil region (yeast two-hybrid bait) (mouse) (UniProt E9Q8Q6)
Assay: two-hybrid; Matchmaker two-hybrid system kit (Clontech); screening of a mouse brain cDNA library with the CAMDI coiled-coil region as bait

With “KIBRA fragment containing a C-terminal coiled-coil region (863 to 1105 amino acids), two-hybrid prey (from UniProt Q5SXA9 863-1104) (domain or fragment)” the binding was “binds”.

No constants are given. Whether binding was seen depends on the method and setting. Binding can be weak; no strength is given.
